According to paper PMC3282682:
No constants are given. Whether binding was seen depends on the method and setting. In cells and extracts the contact can be indirect. Some results given as binding are weak or reduced against the parent protein; the word gives no strength. Where a sequence is shown, tags or fusion partners need not be part of it.

By UniProt entry, the sequences of proteins in these tests, tags left out.
UniProt Q02159: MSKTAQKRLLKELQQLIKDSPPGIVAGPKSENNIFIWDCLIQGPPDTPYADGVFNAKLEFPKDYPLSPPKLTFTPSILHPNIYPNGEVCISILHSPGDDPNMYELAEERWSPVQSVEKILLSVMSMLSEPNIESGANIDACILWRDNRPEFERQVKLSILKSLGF

Molecular target: T1, Pof1p, promoter of filamentation (POF1) protein from Saccharomyces cerevisiae (S. cerevisiae (endogenous in BY4741)) (UniProt P25576)
T1 sequence: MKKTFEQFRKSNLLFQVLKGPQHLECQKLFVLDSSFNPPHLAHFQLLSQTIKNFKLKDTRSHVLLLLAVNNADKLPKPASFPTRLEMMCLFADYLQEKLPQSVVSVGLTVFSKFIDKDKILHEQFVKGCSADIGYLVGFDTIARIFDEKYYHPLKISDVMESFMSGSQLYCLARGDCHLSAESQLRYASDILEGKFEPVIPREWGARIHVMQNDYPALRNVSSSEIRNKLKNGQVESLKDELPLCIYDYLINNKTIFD
Assay: co-IP; soluble extracts of wild type, Δpct1 and Δpof1 cells (stationary phase, synthetic galactose complete medium) incubated with Dynabead-anti-Pof1p complex overnight at room temperature; lysis buffer 50 mM Hepes pH 7.5, 5 mM EDTA, 150 mM NaCl, 300 mM KCl, 1% Triton X-100, 20 mM β-mercaptoethanol; eluate with 1 mM DTT, Western blot for Ubc7p

Ubc7p (ubiquitin conjugating enzyme, ubiquitin conjugase 7) (from UniProt Q02159 1-165)
binding: binds
